Some entries share one result that the patent states for a list of compounds.
Tested on: ras-oncogene product (molecular weight 21,000)
Experiment: ras-oncogene product in malignant cells in vitro (radioimmunoassay and flow cytometry)
Assay type: cell-based
Conditions: applied to malignant cells in vitro

CCCCCCCCCCCCCCCCCC(=O)O [stearic acid, octadecanoic acid]
inhibition of ras-oncogene product (molecular weight 21,000): over 50%

— patent publication EP0238198A2, “Method of modifying the lipid structure function and expression of cell membranes and pharmaceutical compositions for use therein” (Habib, Nagy Adly, priority 1986, dated 1987)
